# Bridge positions count the residues as written; N and C are the ends. Square brackets hold non-standard residues; d marks the D form. Triazole bridges read from a SMILES are 1,4-linked. Peptide text beside a SMILES is read from it. * marks the point of attachment. Biotinyl(3aR,4R,6aS) = O=C1N[C@@H]2[C@@H](CS[C@@H]2CCCCC(=O)*)N1; dTrp(1-Me) = Cn1cc(C[C@@H](N)C(=O)O)c2ccccc21; Lys(N3) = [N-]=[N+]=NCCCC[C@H](N)C(=O)O; dPhe(4-F) = N[C@H](Cc1ccc(F)cc1)C(=O)O; AEEEA = NCCOCCOCCOCC(=O)O; Pra = C#CC[C@H](N)C(=O)O
# Test system: 6×His-tagged IDO1 epitopes
# Test: Point ELISA for orientation of macrocycle binding to synthetic IDO1 epitopes
# Set-up: species or system human
# Conditions: 2 μM epitope, biotin-PEG3-modified macrocycle immobilized
row,Structure (SMILES),Orientation of binding to scrambled epitope variants (maximum ELISA signal)
1,"Cn1cc(C[C@H]2NC(=O)[C@@H](Cc3ccccc3)NC(=O)[C@@H](CCCNC(=N)N)NC(=O)[C@@H](Cc3ccccc3)NC(=O)[C@@H](NC(=O)COCCOCCOCCNC(=O)CCCC[C@H]3SC[C@H]4NC(=O)N[C@H]43)Cc3cn(nn3)CCCC[C@@H](C(N)=O)NC(=O)[C@@H](CO)NC2=O)c2ccccc21 [frf(Me-Trp)s, biotin-PEG3-Cy(frf(Me-Trp)s)] ({Biotinyl(3aR,4R,6aS)-AEEEA}-[Pra][dF][dR][dF][dTrp(1-Me)][dS][Lys(N3)]-NH2; triazole 1-7)",preferential binding to the N-terminal portion of IDO1 Epitope1
2,"CC(C)C[C@H]1NC(=O)[C@@H](CC(N)=O)NC(=O)[C@@H](NC(=O)COCCOCCOCCNC(=O)CCCC[C@H]2SC[C@H]3NC(=O)N[C@H]32)Cc2cn(nn2)CCCC[C@@H](C(N)=O)NC(=O)[C@@H](CCCNC(=N)N)NC(=O)[C@@H](Cc2cn(C)c3ccccc23)NC(=O)[C@@H](Cc2c[nH]c3ccccc23)NC1=O [nlw(Me-Trp)r, biotin-PEG3-Cy(nlw(Me-Trp)r)] ({Biotinyl(3aR,4R,6aS)-AEEEA}-[Pra][dN][dL][dW][dTrp(1-Me)][dR][Lys(N3)]-NH2; triazole 1-7)",preferential binding to the N-terminal portion of IDO1 Epitope2
3,"NC(=O)[C@@H]1CCCCn2cc(nn2)C[C@H](NC(=O)COCCOCCOCCNC(=O)CCCC[C@H]2SC[C@H]3NC(=O)N[C@H]32)C(=O)N[C@H](CO)C(=O)N2CCC[C@@H]2C(=O)N[C@H](Cc2c[nH]c3ccccc23)C(=O)N[C@H](Cc2c[nH]c3ccccc23)C(=O)N[C@H](Cc2ccc(F)cc2)C(=O)N1 [spww(F-Phe), biotin-PEG3-Cy(spww(F-Phe))] ({Biotinyl(3aR,4R,6aS)-AEEEA}-[Pra][dS][dP][dW][dW][dPhe(4-F)][Lys(N3)]-NH2; triazole 1-7)",preferential binding to the N-terminal portion of IDO1 Epitope2

# Reference: US12216122B2, “Compositions and methods relating to detection, inhibition, and imaging of indoleamine 2,3-dioxygenase 1 (IDO1)” (Regeneron Pharmaceuticals, Inc., priority 2019, dated 2025)
